Laboratory results taken from article PMC6465271.
No constants are given. Whether binding was seen depends on the method and setting. Where a sequence is shown, tags or fusion partners need not be part of it. One block for each molecule: values may come before it.

What was measured:
Experiment in all cases: two-hybrid; yeast strain AH109; QKY domains on the GAL4 DNA-binding domain (pAS2-1), SCM domains on the GAL4 activation domain (pACT2); growth on -A-H-L-T selective plates for 3 days
[1] = target: T1, CAPRICE (CPC), yeast two-hybrid fusion (Arabidopsis) (UniProt O22059)
T1 sequence: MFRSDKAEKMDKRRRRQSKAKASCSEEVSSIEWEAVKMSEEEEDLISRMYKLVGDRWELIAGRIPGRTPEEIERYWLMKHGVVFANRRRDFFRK

[2] = target: QKY second domain (QKYD2) fused to the GAL4 DNA-binding domain (Arabidopsis)
[3] = target: QKY third domain (QKYD3) fused to the GAL4 DNA-binding domain (Arabidopsis)

binding [1]: no binding
Molecule: SCM cytosolic domain (SCMCD) fused to the GAL4 activation domain (Arabidopsis) (domain or fragment)

binding [2]: no binding | binding [3]: no binding
B1: CAPRICE (CPC), yeast two-hybrid fusion (protein, UniProt O22059 1-94)
chain: T1 sequence
